The values that follow come from article PMC10333884, “Large‐scale phosphomimetic screening identifies phospho‐modulated motif‐based protein interactions” (Molecular Systems Biology, 2023).

The chains behind the UniProt entries cited, without tags or fusion partners. Residues count along the entry.
UniProt Q00610, residues 1-364: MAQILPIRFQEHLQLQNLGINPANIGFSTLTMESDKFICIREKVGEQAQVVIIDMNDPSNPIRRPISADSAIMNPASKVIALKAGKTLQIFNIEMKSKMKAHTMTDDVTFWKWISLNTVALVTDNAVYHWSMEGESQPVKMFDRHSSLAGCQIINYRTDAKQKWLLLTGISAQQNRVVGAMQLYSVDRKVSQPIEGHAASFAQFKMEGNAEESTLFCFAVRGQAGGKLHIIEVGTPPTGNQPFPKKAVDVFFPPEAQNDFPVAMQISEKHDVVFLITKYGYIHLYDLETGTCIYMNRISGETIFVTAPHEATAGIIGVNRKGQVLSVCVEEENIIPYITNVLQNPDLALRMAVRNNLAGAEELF

No constants are given. Whether binding was seen depends on the method and setting. Binding seen in cells or lysates may run through a third protein. These calls come from enrichment with a bait or labelling near it, and not all partners need be listed.

This assay deals with Clathrin NTD, tagged bait of the phage selections (human) (UniProt Q00610). As to the kind of experiment: proteomic peptide-phage display (ProP-PD); GST- or MBP-tagged bait immobilised in MaxiSorp wells; PM_HD2 library on M13 p8; four rounds of selection at 4°C, negative selection on the tag; enriched pools read by NGS; only the target purified.

B1: GTSE1_(692–707) peptide, displayed on phage (peptide)
peptide: GQLIDLSSPLIQLSPE
On to B1, for which the binding entry is reported as “binds”.
